According to patent US8232314B2, “Compounds that protect against sensory hair cell death” (University of Washington, priority 2005, dated 2012):
For at least one compound, name, drawing or mass did not settle the structure.

System: hair cells
Test: High-throughput screen of FDA approved compound library for protection against aminoglycoside-induced hair cell death
Type: in vivo, zebrafish
Details: library of 1040 FDA approved compounds, high-throughput assay
Experimental: Zebrafish eggs of the AB/Wik wild-type strain were generated and maintained until 5 days post-fertilization temporally corresponding to the developmental maturation of the lateral line hair cells. 5 day postfertilization larvae were prelabeled with the fluorescent dyes FM 1-43, 3 μM (30 sec), and Yo-Pro-1, 2 μM (30 min) to identify the hair cells. Larvae were arrayed into 96 well plates containing embryo media. Synthetic small molecules from the Chembridge Corporation, San Diego, were transferred into the wells for a final concentration of 10 μM (0.05% DMSO). Following a one hour exposure to the compounds fish were treated with neomycin for an additional hour. Larvae were then analyzed in vivo with an epifluorescent Zeiss Axiovert 200M microscope with automated stage and a 40× objective to determine hair cell viability following neomycin exposure.
A library of 1040 FDA approved compounds (NINDS Custom Collection II, Microsource, Inc.) were screened using a high-throughput assay.

## COc1ccc2cc1Oc1ccc(cc1)C[C@H]1c3c(cc4c(c3Oc3cc5c(cc3OC)CCN(C)[C@@H]5C2)OCO4)CCN1C [Cepharanthine]
  protection against aminoglycoside-induced hair cell death (screen hit): protect against aminoglycoside-induced hair cell death
